# Screen size: about 310,000 compounds; about 17,000 (5.5%) were called active. Inconclusive results, whose numbers are uncertain, are shown with a selection of clear calls. Calls come from the whole dose curve; as a rule, active = well fitted inhibition curve with a large enough effect; inconclusive = small, poorly fitted or top-dose-only effect, or effect the other way; inactive = no such curve, though single readings can be large or run the other way. Where the call is inconclusive, the potency comes from a doubtful curve fit.
# Sequences of proteins named here, by UniProt entry; tags and fusion partners are left off. A change or cut given only in a name is not applied to a line headed by its entry.
# UniProt P51450: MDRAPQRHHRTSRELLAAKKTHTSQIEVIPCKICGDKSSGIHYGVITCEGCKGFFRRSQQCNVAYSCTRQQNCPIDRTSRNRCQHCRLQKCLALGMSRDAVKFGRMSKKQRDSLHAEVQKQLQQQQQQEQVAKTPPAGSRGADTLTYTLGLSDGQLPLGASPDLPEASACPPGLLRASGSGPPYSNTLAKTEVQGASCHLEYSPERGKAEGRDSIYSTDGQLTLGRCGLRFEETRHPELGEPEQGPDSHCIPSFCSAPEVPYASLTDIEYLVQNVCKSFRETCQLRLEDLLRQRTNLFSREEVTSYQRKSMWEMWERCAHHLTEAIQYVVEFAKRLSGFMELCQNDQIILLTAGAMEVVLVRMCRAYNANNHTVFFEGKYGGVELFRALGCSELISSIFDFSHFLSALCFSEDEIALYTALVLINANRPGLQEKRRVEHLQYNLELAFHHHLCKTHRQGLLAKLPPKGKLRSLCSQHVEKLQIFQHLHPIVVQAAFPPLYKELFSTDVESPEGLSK
# Target: Nuclear receptor ROR-gamma (Mus musculus) (UniProt P51450)
# Assay: qHTS for inhibitors of ROR gamma transcriptional activity; note: nearly all actives have a fitted effect of over 60% in size
# Conditions: Drosophila S2 Gal4-RORgamma UAS-luciferase reporter, 20 h; activity change, negative = inhibition: at 53.6 µM (top of the series)
# Procedure, shortened: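 A Gal4/UAS one-hybrid system in insect cells: metallothionein-promoter Gal4–ROR gamma fusion plus Photinus luciferase reporter. Copper sulfate 700 uM final, 20 hr ambient incubation, luminescent detection after 10 min with reagent.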
# % is set by controls: 0 for no effect and ±100 for the full control effect; potency is the fitted concentration of half-maximal effect.
SMILES,Potency,"activity change, negative = inhibition"
C/C(CC(=O)Nc1ccc2ccccc2c1)=N\NC(=O)c1ccc(O)c(O)c1,"inconclusive: 35.5 µM [inhibitor, single point]",–
CCN(CC)Cc1c(C(=O)N/N=C/c2cccc(OCc3cccc(Cl)c3)c2)nnn1-c1nonc1N,–,inactive: 25.7%
O=C(C(Cl)Cl)N1c2ccccc2OCC1c1ccccc1 (centres undefined),"inconclusive: 0.891 µM [activator, full curve, poor fit]",–
CC(C)(C)NC(=O)NC(=O)COC(=O)c1ccco1,"inconclusive: 35.5 µM [activator, single point]",–
NNC(=O)c1ccc(Oc2cc(Cl)cc(Cl)c2)o1,"inconclusive: 14.1 µM [inhibitor, single point]",–
NNC(=O)c1cc2ccccc2cc1NS(=O)(=O)c1ccccc1,active: 20 µM,–
Cc1cc(C)cc(C(=O)Nc2nnc(SCC(=O)NCC3CCCO3)s2)c1 (centres undefined),"inconclusive: 6.31 µM [activator, partial curve]",–
Nc1ccc(/C=C/c2ccc3ncccc3c2)cc1,"inconclusive: 15.8 µM [inhibitor, partial curve]",–
CCOC(=O)CSc1ccc2nnc(-c3ccncc3)n2n1,"inconclusive: 0.251 µM [inhibitor, partial curve]",–
COc1ccc(NS(=O)(=O)c2ccc(NC(=S)NC(=O)CC(C)C)cc2)cc1,–,inactive: -31.3%
C=CCNC(=S)NNC(=O)c1ccc(OCC(C)C)cc1,"inconclusive: 15.8 µM [inhibitor, single point]",–
COCCn1nnnc1CN(Cc1ccco1)Cc1cc2cc3c(cc2[nH]c1=O)OCO3,–,inactive: -2.67%
Cc1c(Cl)c([N+](=O)[O-])nn1CCCC(=O)Nc1cc(Oc2ccccc2)cc([N+](=O)[O-])c1,"inconclusive: 10 µM [activator, partial curve]",–
O=C(Nc1ccc(SC(F)F)cc1)C1=COCCO1,"inconclusive: 0.0708 µM [activator, full curve, poor fit]",–
COc1cc(/C=C2\NC(=S)N(C)C2=O)ccc1OCc1cccc(F)c1,"inconclusive: 11.2 µM [inhibitor, partial curve, poor fit]",–
CC(C(=O)O)N1C(=O)/C(=C/c2cccn2C)SC1=S (centres undefined),–,inactive: -13.1%
Cc1cc(C)c(S(=O)(=O)NCc2ccc3c(c2)OCO3)c(C)c1,"inconclusive: 35.5 µM [activator, single point]",–
COc1ccc(C/C(N)=N/n2cnnc2)cc1Cl,–,inactive: 1.44% [at 0.365 µM]
Cc1ccc(N/N=C/c2ccc3c(c2)OCCO3)cc1Cl,"inconclusive: 5.62 µM [inhibitor, single point]",–

# Random excerpt: 2 records from the list.
SMILES,Potency,"activity change, negative = inhibition"
Cc1c(Cl)c([N+](=O)[O-])nn1CCCC(=O)Nc1cc(Oc2ccccc2)cc([N+](=O)[O-])c1,"inconclusive: 10 µM [activator, partial curve]",–
NNC(=O)c1ccc(Oc2cc(Cl)cc(Cl)c2)o1,"inconclusive: 14.1 µM [inhibitor, single point]",–

# — PubChem BioAssay AID2551 (National Center for Advancing Translational Sciences (NCATS), 2010)
